Measurements from PubChem BioAssay AID1508600 (Functional Genomics Laboratory (NCATS/FGL), 2020).
About 3,700 (7%) of roughly 53,000 sequences were called active.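 The calls were made as follows: active = gene knockdowns whose robust z-score for IL-1 alpha signal is at least 2 or at most -2, so actives lie on both sides; inactive = the rest.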 Some of the results follow.

Test: Components of the Cytosolic LPS Sensing Pathway: Gene Identification via Genome-wide siRNA Screen;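 also: robust z of the log signal after scaling to non-targeting control siRNA wells of the plate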
Details: RAW264.7 macrophages, IL-1a HTRF, actives lie on both sides, screened at 100 nM (by protocol), cells primed 5 h with Pam3CSK4 first
Summary of the method: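 Knockdown: 100 nM siRNA, 48h, RAW264.7. Stimulation: Pam3CSK4 5 h, then LipidA via TransIT-TKO 24 h. Output: supernatant IL-1a HTRF, negative-control-normalized, log robust z-score; viability by CellTiter-Glo.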

Sequence | z-score
GCUGCUGACUUAUAACUGGTT against Szt2 | inactive: 1.15
GGCUCUUUGUUCAGUUUUUTT against Fxyd3 | active: 2.52
GGAUGAGAAACCAUUUAAATT against Oas1f | inactive: -1.08
CCUGCGUUGACCAAUCAGATT against C2cd2l | inactive: -1.26
GCAGAUCAACUACGGGAAGTT against Slbp | inactive: 0.405
CGAAUAGAUCAAGUGAGACTT against Spata19 | inactive: -1.24
GGACCUGGUUAAGAUAUGUTT against Pmch | inactive: 0.628
CCGGGAUAACGACCCUAAUTT against Polr2c | inactive: -0.654
GGAUUCAGAAGCAGCAACATT against Nr1h2 | active: -2.29
GGCUGAUAAAAGUUUCAGATT against C9 | inactive: 0.59
GGAUCACGGUCUACAAUAATT against 1700009J07Rik | inactive: 0.214
GUAUGUUCAUAUGGUUUUCTT against Swi5 | active: 2.33
UCAGGUCGCUGCUAAACUCTT against Ccdc57 | inactive: -1.26
GGGCAGUGCCUAUUUGAACTT against Cyp4f18 | inactive: 0.877
GGCUAUGGUGAAAUAAACGTT against Nufip2 | inactive: 0.368
GGGAAAGGAGGACAAAGAGTT against Gip | inactive: 0.374
GGGAGGGUCUAUUGUUAAUTT against Cbr4 | inactive: 1.91
GGCUUUUCAGCAGGUUUAATT against Ube2g1 | active: 5.04
GGAAGAAGCAACCACAUUCTT against Evl | inactive: 0.898
CCUAUUAUAGGACAAAGUATT against Efhc2 | inactive: -0.54
GGCUUCCAUCCUUUCUUUGTT against Ilf2 | inactive: 0.167
GGAGUGGACUCACGUCUAATT against Med23 | inactive: 0.717

Sequence | z-score
CCUCAAUUGGAUAAAGAAGTT against Gzma | inactive: 1.7
GGAGUUCACCACUAUCAAGTT against Spata2l | inactive: 1.6
CGAUGUUGAGGGAUUAUCUTT against Tstd2 | active: -2.25
GCGACUCACUAUUUGGGCATT against Ell3 | inactive: 0.471
CCCACUAAUAGCACUGUCCTT against Olfr746 | inactive: -0.00888
GUCCUAAAACGAGUGAGAGTT against Trib3 | inactive: -0.793
GGAAGUGGCCUUAAAGUAUTT against Arhgef37 | inactive: -1.67
GGGAAAUUAUCGCUUUAUGTT against Invs | inactive: -0.881
GGGAGAAGAUCUAAUUCAATT against Cd34 | inactive: 0.795
GCUAUUGUGGUAUGGAUUATT against Il2ra | inactive: 1.68
GGAGAUAGACAUGCCUUUCTT against Lyrm7 | inactive: 0.0684
GCGGAUUUACACCUUAUCUTT against Bpi | inactive: -1.15
GCUUAUGUCGAAUGAUAGCTT against Id2 | active: -4.22
GCAGUUUGGUCACCUACCATT against 4930583K01Rik | inactive: -0.137
GCGAAAACUUCGGAUCUAUTT against Smarcd2 | inactive: 1.29
GCAGAAGUCAGUCAUGAAUTT against Fbf1 | inactive: -1.14
GCAGUUAACUACGUUGCAATT against Zranb2 | inactive: -0.44
CCUCUGUGAUCCCUAAGAATT against Ubd | inactive: -0.218
CCACAAGGUUCACAGAAAUTT against Calhm2 | inactive: 0.366
GGAAUAUGCCCAAGUUUUUTT against Ctnna1 | active: 2.86
CCAUCAGGUUGACGACUUUTT against Olfr90 | inactive: -0.833
GGUGAAAAGGUUGAUGUCATT against Spertl | inactive: -0.368

Sequence | z-score
GCCAACAACAUCUGUUUCUTT against Fam20c | inactive: 1.09
CCCUGUUAUUAUCUUGAUUTT against Arv1 | inactive: -1.16
ACCAGCACGACAGAUGCUATT against Pla2g12a | active: 3.15
GGAAUCUAUAAAGGAGACCTT against Tmed2 | inactive: 0.344
GCUUAAGAUUGGAAUACUATT against Phf20l1 | inactive: 0.525
CCUAACACCAGGAACCAAATT against Upk2 | inactive: -0.98
GGAACUGUUAGAAAAUGGATT against Sh2d3c | inactive: -0.163
GGAAAAACAAACCUAGCAUTT against Ets1 | inactive: 0.592
GGAGGUGACUGUUCUUAGATT against Haus1 | inactive: 1.16
GUAGAGAAGGAAGAGUGCCTT against Fshb | inactive: 0.499
GCUAAUACACCUUAUGAGATT against Ube2t | inactive: 0.0183
CCGGUAUUGCUGUUCCUGGTT against Agxt | inactive: 1.26
GGUCAGAUGCAGUGCAAGATT against Cldn4 | inactive: 0.539
GGUUAAGAGUAUCGUCAGCTT against Katnal1 | inactive: -0.76
GCAUGAUGAUGGAGACCGATT against Sox1 | inactive: -1.06
GUGAUUAGCCGAAAGGGCUTT against Olfr1032 | inactive: -0.171
GGGAGUAUGGAAAACUGCATT against Bin3 | inactive: 0.0398
GGAAGCAGAAGCUAAAGUGTT against Ubap1 | active: 2.11
GGUCAAGGAAAAAACACUUTT against Nfs1 | inactive: 0.00789
GGAGAUAAAGAGGAACAUUTT against AI504432 | inactive: 1.01
GGAUAUCUCGGAAAUAGAGTT against Tjp2 | inactive: -1.48
GGAGUAGCUGAAUCUGAAGTT against Atp5e | inactive: 1.57

Sequence | z-score
GCUUCAUGGUGGAUUCAGATT against Adgrb2 | inactive: 1.8
CGAGGUGAUUAAAGAGAUGTT against Ccdc84 | inactive: -0.0752
GGGUUUGAGGCCUUCUAUGTT against Masp2 | inactive: -0.0216
GCCAGCGUACUCUUUUUAUTT against Ocln | inactive: -0.694
GGUUUACAGUAAUUACCAATT against Tex12 | inactive: -0.446
GGGACAUAUCUGAAGCAAGTT against Rps26 | inactive: 0.896
CCUGAUUGAUUUUGUUCCCTT against Vmn1r64 | inactive: 0.922
GGCACUAUGUUGAAAAAAUTT against Rnf43 | inactive: -0.555
GCAUUAUGGAUUGACCUAUTT against Noto | inactive: -1.16
GGACCAGGGCAAAAUAUGATT against Pate6 | inactive: 0.727
GGCUCAAGAAACUUAAGGATT against 4933411G06Rik | inactive: -1.33
GGAAAGUAGUUGUUUUGAUTT against Rpa1 | inactive: -1.09
GCCGAGAAUAGAAGACUCATT against Mtrex | inactive: -1.47
GGCUCUAAGCUAAAUAAAGTT against Kbtbd4 | inactive: -0.249
GGUACAGAUGGUGUACAAUTT against 4930595M18Rik | inactive: 1.58
GGGAGAUGAGUUUUCUGAUTT against Cyp2c70 | inactive: 1.15
GGAGUUAGUGAGCUUUGAGTT against Zfp426 | inactive: -0.349
GGCAACAGUGCAUUCAAGUTT against Nptx2 | active: 3.39
GGGAUAUCCCAGAACAAGATT against Vps37a | inactive: 0.336
CGUGUACUCUUCUUGUACATT against Ranbp17 | inactive: -1.94
GCUUAAGUUAUGGAUAGCATT against Pex11b | inactive: 0.813
GCUGAUUUCAUUGCAUCCGTT against Olfr483 | active: 2.12

Sequence | z-score
CCAAUUCCUGGGUGCACACTT against Olfr309 | inactive: -0.691
GGAGCUUGGGUUUAAGAUATT against Atad5 | inactive: 0.0095
GGAAGAGUUAGCUUAGUAUTT against Ypel1 | inactive: 0.648
CCUUGAAUCAAUUGAUAGUTT against Lyplal1 | inactive: 1.05
CCAAUAGUUGUGGACAUGATT against Crisp1 | inactive: 1.82
GCAGUUUGACAACUUAAACTT against Mtus1 | inactive: -0.231
CGUUUCAAUCAGAGGACUUTT against Zfp704 | inactive: 0.478
GGAAAGGACAAAAGAAAGATT against Irx3 | inactive: -1.69
GGUAGAGGUUAUAUAGGCATT against Ms4a6d | inactive: 0.282
GGUUCAUCUGAAAACAGGUTT against Osgepl1 | inactive: -0.781
CAGGCAAAAUAUCGAACAATT against Pstpip1 | inactive: 0.509
CGUUAUGCGGUUUUUCCAUTT against Ndufa6 | inactive: 1.57
GCCUGGAUUAUAGGAUCACTT against Tmem208 | inactive: -1.45
GGGCAUAAUGGUUUUUAUGTT against H3c3 | inactive: -0.487
GGAGAGAGGGAAAAAAGAATT against Sox4 | inactive: -0.317
GCAUGAAUAGCAAGCGAAGTT against Klhl18 | inactive: 0.562
CGUGCUAAACAUUGACACCTT against Stx1b | inactive: 1.16
GGAUGAUGACAUCUUCAACTT against B4galt2 | inactive: 0.012
CGAUCAUUAAGCAAGUGAUTT against Abi3bp | inactive: 0.275

Some of the entries above, reformatted.
Sequence	z-score
CCAAUUCCUGGGUGCACACTT against Olfr309	inactive: -0.691
CAGGCAAAAUAUCGAACAATT against Pstpip1	inactive: 0.509
CGUUAUGCGGUUUUUCCAUTT against Ndufa6	inactive: 1.57
GCCUGGAUUAUAGGAUCACTT against Tmem208	inactive: -1.45
GGGCAUAAUGGUUUUUAUGTT against H3c3	inactive: -0.487
CGUGCUAAACAUUGACACCTT against Stx1b	inactive: 1.16
